The target in experiment [1] is T1, C-terminal Myc-tagged Tob (human) (UniProt P50616).
T1 sequence: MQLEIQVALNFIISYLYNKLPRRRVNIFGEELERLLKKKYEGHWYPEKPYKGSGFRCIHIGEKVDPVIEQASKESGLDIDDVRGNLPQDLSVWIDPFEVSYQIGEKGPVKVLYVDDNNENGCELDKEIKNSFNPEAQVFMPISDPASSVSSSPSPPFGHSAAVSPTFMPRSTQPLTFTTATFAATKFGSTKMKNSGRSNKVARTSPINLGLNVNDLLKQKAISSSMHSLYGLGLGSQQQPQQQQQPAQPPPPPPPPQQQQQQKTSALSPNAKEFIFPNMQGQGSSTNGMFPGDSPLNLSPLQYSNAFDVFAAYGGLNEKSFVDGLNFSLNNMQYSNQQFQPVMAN
Nature of the experiment: co-IP; HEK 293T cells co-transfected for 24 h; immunoprecipitation with anti-Myc tag antibody; TNEN buffer (20 mM Tris-HCl pH 7.5, 150 mM NaCl, 1 mM EDTA, 1% NP-40), 4 °C; immunoblot.

By UniProt entry, the sequences of proteins in these tests, tags left out. Residues count along the entry.
UniProt P06804, residues 80-235: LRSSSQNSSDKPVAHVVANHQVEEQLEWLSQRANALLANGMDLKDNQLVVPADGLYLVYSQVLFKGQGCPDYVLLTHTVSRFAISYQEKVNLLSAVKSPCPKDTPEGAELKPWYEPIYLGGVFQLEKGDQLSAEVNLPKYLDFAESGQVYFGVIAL
UniProt Q9Y6K9: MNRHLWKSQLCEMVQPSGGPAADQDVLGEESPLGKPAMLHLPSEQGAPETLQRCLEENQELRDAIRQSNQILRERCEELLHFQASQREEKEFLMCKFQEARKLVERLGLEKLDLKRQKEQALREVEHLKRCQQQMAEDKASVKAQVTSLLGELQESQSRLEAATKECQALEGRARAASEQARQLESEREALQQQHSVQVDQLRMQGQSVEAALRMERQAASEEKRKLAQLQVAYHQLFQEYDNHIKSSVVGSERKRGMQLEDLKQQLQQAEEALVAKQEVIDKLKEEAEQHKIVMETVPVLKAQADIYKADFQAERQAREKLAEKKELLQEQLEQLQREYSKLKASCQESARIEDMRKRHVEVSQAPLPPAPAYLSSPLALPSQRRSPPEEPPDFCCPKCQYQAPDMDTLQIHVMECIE
UniProt Q13546: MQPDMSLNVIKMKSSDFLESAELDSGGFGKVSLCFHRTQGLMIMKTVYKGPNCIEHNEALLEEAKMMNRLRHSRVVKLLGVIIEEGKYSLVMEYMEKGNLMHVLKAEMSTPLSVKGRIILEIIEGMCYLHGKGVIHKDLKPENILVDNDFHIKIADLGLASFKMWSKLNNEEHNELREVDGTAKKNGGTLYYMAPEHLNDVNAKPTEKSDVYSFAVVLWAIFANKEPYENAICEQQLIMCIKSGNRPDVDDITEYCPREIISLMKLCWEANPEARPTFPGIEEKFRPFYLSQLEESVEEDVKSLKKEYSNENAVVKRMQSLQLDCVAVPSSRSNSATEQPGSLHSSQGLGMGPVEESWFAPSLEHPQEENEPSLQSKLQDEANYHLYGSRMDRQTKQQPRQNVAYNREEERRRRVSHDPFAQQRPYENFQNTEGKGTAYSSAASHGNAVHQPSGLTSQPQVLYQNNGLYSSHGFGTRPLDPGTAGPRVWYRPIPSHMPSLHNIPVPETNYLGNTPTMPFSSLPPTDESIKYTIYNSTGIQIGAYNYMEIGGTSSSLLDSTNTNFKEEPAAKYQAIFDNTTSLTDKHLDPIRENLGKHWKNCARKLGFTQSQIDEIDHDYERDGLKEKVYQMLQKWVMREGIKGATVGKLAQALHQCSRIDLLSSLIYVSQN
UniProt Q96EP0: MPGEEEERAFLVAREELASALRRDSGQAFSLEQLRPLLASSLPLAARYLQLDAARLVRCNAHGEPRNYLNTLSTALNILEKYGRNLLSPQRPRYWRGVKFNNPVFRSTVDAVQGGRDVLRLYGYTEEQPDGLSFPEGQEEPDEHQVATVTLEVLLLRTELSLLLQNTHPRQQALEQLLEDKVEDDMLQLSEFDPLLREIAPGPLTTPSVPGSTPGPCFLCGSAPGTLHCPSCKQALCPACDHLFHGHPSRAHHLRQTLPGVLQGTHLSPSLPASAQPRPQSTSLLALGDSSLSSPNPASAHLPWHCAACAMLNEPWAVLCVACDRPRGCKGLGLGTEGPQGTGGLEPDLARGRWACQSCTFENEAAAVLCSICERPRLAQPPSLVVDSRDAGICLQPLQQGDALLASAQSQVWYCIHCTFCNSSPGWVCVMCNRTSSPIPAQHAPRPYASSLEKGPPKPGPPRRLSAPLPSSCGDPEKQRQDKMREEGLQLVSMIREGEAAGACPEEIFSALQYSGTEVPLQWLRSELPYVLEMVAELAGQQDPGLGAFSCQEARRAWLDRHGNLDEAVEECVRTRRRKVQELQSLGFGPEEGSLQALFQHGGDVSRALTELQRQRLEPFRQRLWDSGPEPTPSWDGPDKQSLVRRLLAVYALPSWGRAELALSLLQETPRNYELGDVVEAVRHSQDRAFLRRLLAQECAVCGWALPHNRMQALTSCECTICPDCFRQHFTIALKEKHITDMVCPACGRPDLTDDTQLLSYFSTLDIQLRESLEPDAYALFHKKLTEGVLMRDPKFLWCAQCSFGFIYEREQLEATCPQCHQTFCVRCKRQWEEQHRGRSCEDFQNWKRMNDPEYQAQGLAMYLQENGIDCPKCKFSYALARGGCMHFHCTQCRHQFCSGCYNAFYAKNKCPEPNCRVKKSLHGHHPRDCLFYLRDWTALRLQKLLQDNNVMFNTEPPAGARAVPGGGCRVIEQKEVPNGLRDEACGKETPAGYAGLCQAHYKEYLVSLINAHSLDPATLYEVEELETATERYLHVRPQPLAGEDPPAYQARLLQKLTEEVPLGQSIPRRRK

Experiment [2] deals with T1, C-terminal Myc-tagged Tob (human). Nature of the experiment: co-IP; Supplementary Fig. 5c; legend not shown, taken as immunoprecipitation, the only binding method of the paper; cells and bait not told.
Experiment [3] addresses T2, Tob (Transducer of ErbB2) (human (endogenous in MCF-7 and SK-BR3)) (UniProt P50616).
T2 sequence: T1 sequence
Nature of the experiment: co-IP; immunoprecipitation with anti-Tob antibody from lysates of MCF-7 (parental or Tob KO) and SK-BR3 cells treated with 10 ng/mL TNF-α for the indicated times; TNEN buffer (20 mM Tris-HCl pH 7.5, 150 mM NaCl, 1 mM EDTA, 1% NP-40), 4 °C; immunoblot.

The target of experiment [4] is mouse Flag-tagged TNF-α (mouse) (UniProt P06804). Nature of the experiment: co-IP; TNFR complex I purification: MEFs stimulated with 2 μg/mL Flag-tagged TNF-α, lysed (30 mM Tris-HCl pH 7.5, 120 mM NaCl, 2 mM EDTA, 2 mM KCl, 10% glycerol, 1% Triton X-100), precipitated overnight at 4 °C with anti-Flag M2 beads; immunoblot; only the target purified. (In general: Immunoblotting shows a protein as a band on a membrane.)

Results are given in words; binding and its absence hold for the method and conditions named. Binding seen in cells or lysates may run through a third protein. Some binding calls cover weakened binding; strength is not graded here. For some assays here: Where a sequence is shown, tags or fusion partners need not be part of it.

For the molecule “human NEMO (pRK5-human NEMO) (from UniProt Q9Y6K9 1-419)”, the binding entry in experiment [1] was “binds”.
As for “HOIL-1L (pCMV3-Flag8-HOIL-1L) (from UniProt Q9BYM8-1 1-510)”, the binding result in experiment [2] is on record as “binds”.
Turning to “N-terminal Flag-tagged RIPK1 (pRK5-Flag-human RIPK1) (from UniProt Q13546 1-671)”, in experiment [1], the binding entry was “binds”.
Regarding “Receptor Interacting Protein kinase 1 (RIPK1) (from UniProt Q13546 1-671)”, in experiment [3], the binding entry is “binds”.
Regarding “HOIP (pCMV3-Flag8-HOIP) (from UniProt Q96EP0 1-1072)”, in experiment [2], the binding entry is listed as “binds”.
As to “NF-κB essential modulator (NEMO) (from UniProt Q9Y6K9 1-419)”, in experiment [3], the binding result is on record as “binds”.

B1: SHARPIN (pCMV3-Flag8-SHARPIN) (protein, UniProt Q9H0F6 1-387)
chain: MAPPAGGAAAAASDLGSAAVLLAVHAAVRPLGAGPDAEAQLRRLQLSADPERPGRFRLELLGAGPGAVNLEWPLESVSYTIRGPTQHELQPPPGGPGTLSLHFLNPQEAQRWAVLVRGATVEGQNGSKSNSPPALGPEACPVSLPSPPEASTLKGPPPEADLPRSPGNLTEREELAGSLARAIAGGDEKGAAQVAAVLAQHRVALSVQLQEACFPPGPIRLQVTLEDAASAASAASSAHVALQVHPHCTVAALQEQVFSELGFPPAVQRWVIGRCLCVPERSLASYGVRQDGDPAFLYLLSAPREAPATGPSPQHPQKMDGELGRLFPPSLGLPPGPQPAASSLPSPLQPSWSCPSCTFINAPDRPGCEMCSTQRPCTWDPLAAAST
As to B1, in experiment [2], the binding result is given as “binds”.

B2: Tob (in the TNFR complex IP experiment) (protein, UniProt Q61471 1-362)
chain: MQLEIQVALNFIISYLYNKLPRRRVNIFGEELERLLKKKYEGHWYPEKPYKGSGFRCIHVGEKVDPVIEQASKESGLDIDDVRGNLPQDLSVWIDPFEVSYQIGEKGPVKVLYVDDSSETGCELDKEIKNSFNPEAQVFMPISDPASSVSSSPSPPFGHSAAVSPTFMPRSTQPLTFTTATFAATKFGSTKMKNSGRSSKVARTSPINLGLTVNVNDLLKQKAISSSVHSLYGLGLGSQQQPQPQPQQQQQQQPSSSQPPPPLPQQQQQQPQQQQQQQQQTSALSPNAKEFIFPNMQGQGSSTNGMFPGDSPLNLSPLQYSNAFDVFAAYGGLNEKSFVDGLNFSLNNMQYSNQQFQPVMAN
modifications: appeared to be polyubiquitylated
As for B2, the binding entry in experiment [4] is “binds”.

For the origin of these results see paper PMC12086088.
